# Screen size: about 2,800 compounds; fewer than 10 were called active. Another 7% or so got no clear call; they are omitted. The call rests on the fitted dose curve; in most records, active means well fitted inhibition curve with a large enough effect; inconclusive means small, poorly fitted or top-dose-only effect; inactive means no such curve, though single readings can be large or run the other way. This is one part of the list.
# By UniProt entry, the sequences of proteins in these tests, tags left out. Where a name states a change or a piece, a line headed by the entry shows the natural chain unless it says otherwise.
# UniProt C7C422: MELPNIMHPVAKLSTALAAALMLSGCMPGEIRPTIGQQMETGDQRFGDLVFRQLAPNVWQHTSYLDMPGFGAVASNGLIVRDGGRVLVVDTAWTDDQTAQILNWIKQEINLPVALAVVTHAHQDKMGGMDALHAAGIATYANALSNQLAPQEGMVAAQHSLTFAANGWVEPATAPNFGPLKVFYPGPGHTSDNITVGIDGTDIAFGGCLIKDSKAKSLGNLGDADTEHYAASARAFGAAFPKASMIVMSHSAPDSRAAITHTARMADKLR
# Target: Metallo-beta-lactamase type 2 (Klebsiella pneumoniae) (UniProt C7C422)
# Assay: qHTS to identify inhibitors of the New Delhi Metallo-beta-lactamase (NDM): Nitrocefin screen against the machine-based learning selections. Further: % of control where 0% means no effect.
# Conditions: NDM-1 enzyme, nitrocefin hydrolysis, absorbance 485 nm; activity, negative = inhibition: at the top concentration
# Procedure, shortened: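 NDM-1 (2 nM final) in 50 mM HEPES pH 7.0, 1 uM Zn2SO4, 0.01% Tween20 was preincubated with compounds for >30 min. Nitrocefin (16.7 uM final) was read at 485 nm after 15 min, and meropenem (50 uM final) at 300 nm after 30 min.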
row,Structure (SMILES),"activity, negative = inhibition"
1,Cc1cc(=O)n(CC(=O)Nc2cccc(C(F)(F)F)c2)c(N2CCN(c3ccccc3)CC2)n1,inactive: -3.33%
2,CC(=O)Nc1cccc(-c2csc(CN3CCCC(C)(NC(C)=O)C3)c2)c1 (configuration not stated),inactive: -2.8% [at 57.5 µM]
3,COCCN1C(=O)[C@H]2CN(Cc3cccc(OC)c3)C[C@H]2C1=O,inactive: -4.3%
4,CC(=O)N1CCc2nc(-c3ccc(Cl)cc3)nc(-c3ccccc3)c2C1,inactive: -1.17%
5,CC1=NOC2(CCN(C(=O)c3ccc(C)cc3)CC2)C1,inactive: 1.58% [at 57.5 µM]
6,O=C1Nc2ccc(-c3ccc4c(c3)OCO4)cc2C(=O)N2CCN(C(=O)c3cccs3)C[C@H]12,inactive: -0.771%
7,Cn1nc(C2CCN(C(=O)c3cccc(Cl)c3)CC2)[nH]c1=O,inactive: -0.298% [at 57.5 µM]
8,CN(C)C(=O)NC1CCN(c2nc3ncccc3o2)CC1,inactive: -2.93% [at 57.5 µM]
9,CC(C)c1ccc(Nc2n[nH]c(C(O)c3ccccc3)n2)cc1 (configuration not stated),inactive: 8.05% [at 57.5 µM]
10,CCN(CC)Cc1cnc2c(C(=O)N3CCC(N4CCCC4)CC3)cnn2c1,inactive: -2.66%
11,Cc1cc(OC(C)C(=O)N2CCc3c(nc[nH]c3=O)C2)cc(C)c1Cl (configuration not stated),inactive: 1.34%
12,C[C@@H](NC(=O)[C@@H]1C[C@@H](NS(=O)(=O)c2cn(C)cn2)CCN1C(=O)c1ccco1)C(N)=O,inactive: -0.956%
13,CCCC1C=CCN1C(=O)c1coc(CN2CCN(c3ccccc3F)CC2)n1 (configuration not stated),inactive: -8.11%
14,Cc1c(C(C)NC(=O)c2ccc(C#N)nc2)cnn1-c1ccc(F)cc1F (configuration not stated),inactive: 2.4%
15,O=C(Nc1cccc(-c2ccc(F)cc2)c1)C1CCCN(C(=O)c2cccnc2)C1 (configuration not stated),inactive: 2.57%
16,Cc1noc(C)c1S(=O)(=O)N1C[C@@H](C(N)=O)[C@H](C2CCN(C)CC2)C1,inactive: 0.0336%
17,Cc1cc(C)nc(N2CCN(C(=O)C3CC(=O)N(CC(C)C)C3)CC2)n1 (configuration not stated),inactive: -0.903%
18,Cc1ccc2c(c1)SCC(=O)N2CC(=O)N(C)Cc1ccoc1,inactive: -3.58%
19,O=C1N(C2CCOCC2)C[C@H]2CN(Cc3ccccc3F)CCN12,inactive: 2.63% [at 57.5 µM]
20,NC(=O)Cc1c[nH]c2ncc(-c3cccc(OC(F)(F)F)c3)cc12,inactive: 6.36% [at 57.5 µM]
21,CC(C)C[C@@H](NC(=O)C1=C[C@@H](NC(=O)c2cnccn2)[C@@H](O)[C@H](O)C1)C(N)=O,inactive: -1.3% [at 57.5 µM]
22,COc1ccc(-c2nnc([C@H]3CCN(c4ncccn4)C3)o2)cc1,inactive: 0.508% [at 57.5 µM]
23,COc1ccc(CN2CCNc3cnc(Nc4cccnc4)cc3C2)cc1O,inactive: 3.06% [at 57.5 µM]
24,Cc1cc(C)n(Cc2c(C(=O)NCC34CCC=C3N(C)C(=O)CC4)noc2C)n1 (configuration not stated),inactive: -4%

# By substructure, the entries above containing a Cl atom.
row,Structure (SMILES),"activity, negative = inhibition"
4,CC(=O)N1CCc2nc(-c3ccc(Cl)cc3)nc(-c3ccccc3)c2C1,inactive: -1.17%
7,Cn1nc(C2CCN(C(=O)c3cccc(Cl)c3)CC2)[nH]c1=O,inactive: -0.298% [at 57.5 µM]
11,Cc1cc(OC(C)C(=O)N2CCc3c(nc[nH]c3=O)C2)cc(C)c1Cl (configuration not stated),inactive: 1.34%

# Further records

row,Structure (SMILES),"activity, negative = inhibition"
1,CCN(CC)CC[C@H]1CN(C(=O)NC2CCCCC2)CC[C@H]1CC(=O)O,inactive: -2.93% [at 57.5 µM]
2,COc1ccc(C(=O)N2C[C@@H]3OCC(=O)N(CC4CC4)[C@@H]3C2)cc1,inactive: -3.26% [at 57.5 µM]
3,Cc1ccccc1[C@H]1C[C@@H](O)[C@@H](O)[C@@H]1NC(=O)c1c(-c2ccccc2)noc1C,inactive: 7.56% [at 57.5 µM]
4,COCCN(C)C[C@@H]1CN(C(=O)c2cc3ccccc3n(C)c2=O)C[C@@H]1CO,inactive: -3.85%
5,Cn1cc(C(NC(=O)c2cnc(N)nc2-c2ccccc2)C2CC(O)C2)cn1 (configuration not stated),inactive: 1.03%
6,NC(=O)[C@@H]1CCCN1C(=O)c1ccc2oc(-c3cccc(F)c3)nc2c1,inactive: -3.39%
7,CN(C)c1cccc(C(=O)N2CCCC(n3cc(-c4nc(C5CC5)no4)nn3)C2)c1 (configuration not stated),inactive: 2.17%
8,Cc1ccccc1C(CC(=O)NCc1cccnc1)c1ccccc1 (configuration not stated),inactive: -3.05%
9,COc1ccc2[nH]cc(CCNC(=O)C3(Cc4cccnc4)CCCCC(=O)N3)c2c1 (configuration not stated),inactive: 1.89%
10,NC(=O)c1csc(S(=O)(=O)N2CCC(CO)(CN3CCCC3)CC2)c1,inactive: -2.83%
11,CCN1CCCC2(CCN(C(=O)NCCc3ccccc3F)C2)C1=O (configuration not stated),inactive: -2.96%
12,COc1ccc2c(c1)CN(C(=O)c1cccc(C#N)c1)CC[C@H]1COC(=O)N21,inactive: -1.91% [at 57.5 µM]
13,CC(C)C[C@@H](NC(=O)C1=C[C@@H](NC(=O)Cc2cccs2)[C@@H](O)[C@H](O)C1)C(N)=O,inactive: -13.3% [at 57.5 µM]
14,COc1ccc(CN[C@H]2C[C@H]3C(=O)NC[C@@H](CCC(=O)NCc4ccc(F)cc4)N3C2)cc1,inactive: 3.62%
15,CNc1cc(C)nc(N2C[C@H]3CN(C(=O)N(C)C)C[C@@]3(C(=O)O)C2)n1,inactive: -14.6%
16,COCc1noc([C@@H]2CC(F)(F)CN2C(=O)c2occc2C)n1,inactive: -2.73%
17,COc1cccc(NC(=O)COc2cccc(-c3nnc4n3CCCC4)c2)c1,inactive: -5.08%
18,O=C(Cc1ccccc1)Nc1ccc([C@@H](O)[C@H]2COCC(=O)N2CC2CC2)cc1,inactive: -3.52% [at 57.5 µM]
19,Cn1ccc2c(C(=O)NCc3cccnc3)nc(Nc3ccccc3)cc21,inactive: -14.7% [at 57.5 µM]
20,O=C(NC[C@H]1OC[C@@H](NCc2cnc[nH]2)[C@@H]1O)C1CCCC1,inactive: 11.5% [at 57.5 µM]
21,COC[C@@H]1CN(C(=O)c2cncc(C)c2)C[C@H]1C(N)=O,inactive: 1.39%
22,CCc1cc(C(=O)N[C@H](c2ccc(OC)nc2)C2CC(O)C2)ccn1 (some centres not stated),inactive: -0.196%
23,O=C(CCCc1ccccc1)NCC(=O)N1CCCCCCNC(=O)CC1c1ccccc1 (configuration not stated),inactive: -0.154%

# Reference: PubChem BioAssay AID1794844 (National Center for Advancing Translational Sciences (NCATS), 2023)
